PubChem BioAssay AID504808 – Drosophila RNAi Screening Center, 2011

Purpose: 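Fly genes required to hold E2F transcription in check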 (primary screen)
Cells: Drosophila S2 cells
Knock-down reagent: long dsRNA against Drosophila genes
Measurement: 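Firefly luciferase driven by E2F sites, normalised to Renilla luciferase on the same minimal promoter, measured by plate reader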
Direction: E2F firefly: higher = more E2F reporter activity; Renilla normaliser: higher = more normaliser reporter signal
Call rule: 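Called active if the normalised E2F reporter went up by over 50%; the cutoff is arbitrary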
The deposit covers about 21,000 reagents; shown is an unselected part of those that have a named target and a result. In the full data, 18 (0.084%) got an active call. 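Raw counts without plate normalisation, one of two replicates; the ratio scores behind the calls were not deposited.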 A number with no mark means an inactive call. Not given: the amount of reagent, the time to read-out.

| target gene | amplicon | E2F firefly, rep 1 | Renilla normaliser, rep 1 |
| --- | --- | --- | --- |
| Pde11 (Phosphodiesterase 11) | DRSC02028 | 51806 | 2954 |
| Pde11 (Phosphodiesterase 11) | DRSC02460 | 85932 | 3898 |
| Kmn1 (kinetochore Mis12-Ndc80 network component 1) | DRSC19666 | 1.49e5 | 8720 |
| CG15545 | DRSC15083 | 1.17e5 | 6547 |
| Gyc32E (Guanylyl cyclase at 32E) | DRSC01154 | 1.26e5 | 6829 |
| mol (moladietz) | DRSC01431 | 1.18e5 | 3439 |
| mol (moladietz) | DRSC01912 | 93701 | 3251 |
| mol (moladietz) | DRSC02479 | 1.11e5 | 3931 |
| S-Lap7 (Sperm-Leucylaminopeptidase 7) | DRSC06374 | 93830 | 4400 |
| Hrs (Hepatocyte growth factor regulated tyrosine kinase substrate) | DRSC00549 | 96406 | 3957 |
| CG33252 | DRSC19162 | 88820 | 2422 |
| ATP6 (retired record) | DRSC21278 | 1.30e5 | 5659 |
| Acyp2 (Acylphosphatase 2) | DRSC15336 | 1.19e5 | 5963 |
| CG7299 | DRSC03043 | 1.64e5 | 4783 |
| mEFTs (mitochondrial translation elongation factor Ts) | DRSC02953 | 81822 | 3247 |
| kra (krasavietz) | DRSC12320 | 98327 | 3357 |
| lncRNA:CR32657 (long non-coding RNA:CR32657) | DRSC19403 | 1.35e5 | 6591 |
| CG12883 | DRSC14570 | 1.25e5 | 5868 |
| CG13875 | DRSC08345 | 98226 | 4425 |
| Drep1 (DNA fragmentation factor-related protein 1) | DRSC07527 | 1.00e5 | 4337 |
| Odc1 (Ornithine decarboxylase 1) | DRSC07482 | 3504 | 209 |
| Miro (Mitochondrial Rho) | DRSC15795 | 69875 | 3951 |
| I-t (inhibitor-t) | DRSC16713 | 1.40e5 | 6237 |
| MED26 (Mediator complex subunit 26) | DRSC17126 | 68161 | 3003 |
| MED26 (Mediator complex subunit 26) | DRSC17147 | 25926 | 3327 |
| MED26 (Mediator complex subunit 26) | DRSC17148 | 1096 | 808 |
| pHCl-2 (pH-sensitive chloride channel 2) | DRSC14306 | 1.13e5 | 5582 |
| etaTry (etaTrypsin) | DRSC07613 | 1.00e5 | 4399 |
| CG5500 | DRSC15820 | 1.17e5 | 5130 |
| CG13731 | DRSC10059 | 1.57e5 | 7079 |
| mei-38 (meiotic 38) | DRSC18564 | 1.22e5 | 5246 |
| Ppt1 (Palmitoyl-protein thioesterase 1) | DRSC17806 | 1.25e5 | 5839 |
| CG43367 | DRSC08299 | 1.01e5 | 4523 |
| CG43367 | DRSC08301 | 97190 | 4882 |
| CG43367 | DRSC08309 | 92377 | 3719 |
| wmd (wing morphogenesis defect) | DRSC04436 | 92608 | 3477 |
| p130CAS | DRSC07862 | 1.43e5 | 4040 |
| p130CAS | DRSC08257 | 65782 | 3852 |
| CG32645 | DRSC19683 | 7161 | 382 |
| CG32645 | DRSC19889 | 1.44e5 | 6681 |
| FBXO11 (F-box protein 11) | DRSC16497 | 73571 | 3368 |
| CG34174 | DRSC00101 | 1.48e5 | 5602 |
| Polr1B (RNA polymerase I subunit B) | DRSC00780 | 81497 | 3692 |
| AttB (Attacin-B) | DRSC06734 | 93735 | 4020 |
| CG11085 | DRSC19374 | 79718 | 5057 |
| OtopLc (Otopetrin-like c) | DRSC18082 | 1.09e5 | 4653 |
| OtopLc (Otopetrin-like c) | DRSC18083 | 82833 | 4478 |
| OtopLc (Otopetrin-like c) | DRSC18132 | 1.19e5 | 4964 |
| CG10859 | DRSC02110 | 91358 | 3632 |
| CG12460 (retired record) | DRSC20970 | 1.35e5 | 5935 |
| CG15458 | DRSC20529 | 1.39e5 | 6821 |
| mthl10 (methuselah-like 10) | DRSC08504 | 95147 | 4064 |
| mthl10 (methuselah-like 10) | DRSC08505 | 98092 | 3963 |
| Oamb (Octopamine receptor in mushroom bodies) | DRSC13433 | 96406 | 2731 |
| Oamb (Octopamine receptor in mushroom bodies) | DRSC15120 | 1.25e5 | 6949 |
| Oamb (Octopamine receptor in mushroom bodies) | DRSC16763 | 1.38e5 | 6881 |
| Cdc5 (Cell division cycle 5) | DRSC08577 | 49353 | 3693 |
| CG5167 | DRSC15728 | 1.50e5 | 7114 |
| CG14294 | DRSC14774 | 1.36e5 | 8436 |
| CG3687 | DRSC06850 | 1.43e5 | 4771 |
| Cyp6a21 (Cytochrome P450 6a21) | DRSC07381 | 1.07e5 | 4455 |
| mRpS25 (mitochondrial ribosomal protein S25) | DRSC19598 | 2.10e5 | 11805 |

13 entries from above, reduced to “Renilla normaliser, rep 1”:
Polr1B (RNA polymerase I subunit B) [DRSC00780] = 3692
AttB (Attacin-B) [DRSC06734] = 4020
CG11085 [DRSC19374] = 5057
OtopLc (Otopetrin-like c) [DRSC18082] = 4653
OtopLc (Otopetrin-like c) [DRSC18083] = 4478
OtopLc (Otopetrin-like c) [DRSC18132] = 4964
CG10859 [DRSC02110] = 3632
CG12460 (retired record) [DRSC20970] = 5935
CG15458 [DRSC20529] = 6821
mthl10 (methuselah-like 10) [DRSC08504] = 4064
mthl10 (methuselah-like 10) [DRSC08505] = 3963
Oamb (Octopamine receptor in mushroom bodies) [DRSC13433] = 2731
Oamb (Octopamine receptor in mushroom bodies) [DRSC15120] = 6949

The results go on.
| target gene | amplicon | E2F firefly, rep 1 | Renilla normaliser, rep 1 |
| --- | --- | --- | --- |
| I-2 (Inhibitor-2) | DRSC11194 | 1.11e5 | 7600 |
| Atg4b (Autophagy-related 4b) | DRSC15988 | 77773 | 3484 |
| mRpL20 (mitochondrial ribosomal protein L20) | DRSC09828 | 1.16e5 | 7262 |
| hydra | DRSC20497 | 1.15e5 | 6754 |
| Dph4 (Diphthamide biosynthesis 4) | DRSC12318 | 1.39e5 | 7077 |
| chk (chaski) | DRSC04994 | 85612 | 3417 |
| CG7328 | DRSC10812 | 1.38e5 | 6493 |
| CG10383 | DRSC02050 | 72893 | 3389 |
| CG7156 | DRSC16207 | 71915 | 4530 |
| dbr (debra) | DRSC00274 | 74372 | 3505 |
| CR42785 (pseudo) | DRSC04962 | 1.34e5 | 5244 |
| msd5 (mitotic spindle density 5) | DRSC08560 | 1.06e5 | 4386 |
| CG17712 | DRSC00266 | 80622 | 3798 |
| COX6AL2 (Cytochrome c oxidase subunit 6A-like 2) | DRSC10082 | 1.08e5 | 5532 |
| tsu (tsunagi) | DRSC07265 | 1.59e5 | 4600 |
| CG7600 | DRSC09681 | 69844 | 3950 |
| CG10657 | DRSC09768 | 71468 | 3672 |
| RhoGEF3 (retired record) | DRSC08266 | 79590 | 3487 |
| RhoGEF3 (retired record) | DRSC08353 | 89619 | 4132 |
| Doa (Darkener of apricot) | DRSC13892 | 76866 | 2229 |
| Doa (Darkener of apricot) | DRSC13893 | 82417 | 2498 |
| Doa (Darkener of apricot) | DRSC13895 | 92397 | 3112 |
| Doa (Darkener of apricot) | DRSC13896 | 86421 | 2485 |
| Doa (Darkener of apricot) | DRSC13897 | 89145 | 2448 |
| Doa (Darkener of apricot) | DRSC16650 | 2029 | 1016 |
| CG8065 | DRSC10959 | 1.14e5 | 6661 |
| bbg (big bang) | DRSC11077 | 1.93e5 | 8966 |
| bbg (big bang) | DRSC11079 | 1.69e5 | 7249 |
| CG14459 | DRSC11719 | 57736 | 3471 |
| mRpS22 (mitochondrial ribosomal protein S22) | DRSC14488 | 1822 | 1032 |
| E(spl)mbeta-HLH (Enhancer of split mbeta, helix-loop-helix) | DRSC16697 | 1904 | 980 |
| CG40551 (retired record) | DRSC21229 | 71691 | 5034 |
| CG34316 | DRSC13080 | 83472 | 2996 |
| Pask (PAS kinase) | DRSC04337 | 92966 | 3631 |
| DIP2 (DISCO Interacting Protein 2) | DRSC08582 | 71256 | 3390 |
| CG14795 | DRSC18513 | 1.23e5 | 6398 |
| CG15011 | DRSC08464 | 73619 | 2984 |
| Sply (Sphingosine-1-phosphate lyase) | DRSC07299 | 50603 | 3433 |
| CG13675 | DRSC08908 | 1.11e5 | 4216 |
| CG13675 | DRSC10034 | 76354 | 3363 |
| Lint-1 (l(3)mbt interacting protein 1) | DRSC19822 | 7618 | 808 |
| CG7742 | DRSC03066 | 90446 | 3883 |
| Cpr78Cc (Cuticular protein 78Cc) | DRSC11846 | 1.43e5 | 7657 |
| CG4576 | DRSC15604 | 1.31e5 | 6196 |
| CG3548 | DRSC04387 | 83372 | 3509 |
